One compound from patent US10307437B2, “Methods for treatment of vascular endothelial dysfunction using nicotinamide mononucleotide” (The Regents of the University of Colorado, a Body Corporate, priority 2014, dated 2019) can be followed below.

Read-outs that look alike come from different tables or passages of the source.

Data set [1] is classed as in vivo, mice. An excerpt: Young (4-8 months) C57Bl/6 male mice were purchased from Charles River and old (26-28 months) C57Bl/6 male mice were obtained from the National Institute on Aging rodent colony. Mice were fed normal rodent chow ad libitum for the duration of the study. After an acclimation period of 2 weeks, the young and old mice were divided into two subgroups: control animals (YC, OC) continued on normal drinking water and the other animals (YNMN, ONMN) received nicotinamide mononucleotide (NMN; Sigma-Aldrich Corp., St. Louis, Mo., USA) supplementation in the drinking water (240 mg/kg/day) for 8 weeks. All mice were housed in an animal care facility at the University of Colorado Boulder on a 12:12 hour light-dark cycle. All animal procedures conformed to the Guide to the Care and Use of Laboratory Animals (NIH publication No. 85-23, revised 1996) and were approved by the UCB Animal Care and Use Committee.
Data are presented as mean±SEM in text, figures and tables. All analyses were performed with SPSS. A one-way ANOVA (Analysis of Variance) was used to analyze morphological characteristics, maximum EDD, NO-mediated EDD, EPR spectroscopy, aPWV, elastic modulus, Western blots, and immunohistochemistry. Within-group differences in the maximal EDD dose response to acetylcholine in the absence vs. presence of TEMPOL was determined using two-factor (group×treatment) repeated-measures ANOVA. When a significant main effect was observed, Tukey post-hoc tests were used to determine specific pairwise differences. Significance was set at p<0.05.

For data set [2], the system named is C57Bl/6 male mice. Nature of the data set: Ex vivo carotid artery vasodilatory responses after NMN supplementation in drinking water. The note with it: NMN treatment vs controls.

Regarding `NC(=O)c1ccc[n+]([C@@H]2O[C@H](COP(=O)([O-])O)[C@@H](O)[C@H]2O)c1` [NMN, nicotinamide mononucleotide], the “age-related increase in heart mass and decrease in fat and muscle mass” value in data set [1] (NMN treatment vs controls) is given as “not altered”. For the same compound, in data set [1] (old NMN-treated mice (ONMN)), the “Gastroc mass (gastrocnemius)” value is recorded as 126 ± 2 mg, the Heart mass stood at 182 ± 8 mg, the “Quad mass (quadriceps)” value turned out to be 146 ± 6 mg and the “SubQ fat mass (subcutaneous fat)” value amounted to 201 ± 23 mg. In addition, the “WAT mass (white adipose tissue)” value in data set [1] (old NMN-treated mice (ONMN)) amounted to 430 ± 50 mg. Further, in data set [1] (young NMN-treated mice (YNMN)), the “Gastroc mass (gastrocnemius)” value is given as 148 ± 8 mg, the Heart mass turned out to be 139 ± 7 mg, the “Quad mass (quadriceps)” value came out at 185 ± 6 mg and the “SubQ fat mass (subcutaneous fat)” value stood at 252 ± 16 mg. In addition, the “WAT mass (white adipose tissue)” value in data set [1] (young NMN-treated mice (YNMN)) was 600 ± 35 mg. The “effect on baseline carotid artery diameters” value in data set [2] is listed as “no significant effect”.
